Measured values as given in EP2863873B1, “COSMETIC AND DERMATOLOGICAL PREPARATION CONTAINING ONE OR MORE SUBSTANCES WHICH MODULATE THE GENE / PROTEIN FOR THE ENDO180 RECEPTOR” (Beiersdorf AG, priority 2012, dated 2013).
Some results were stated once for a whole list of compounds, not compound by compound.

System: Endo180
Experiment: Endo180 expression by antibody detection in Cell Western, human dermal fibroblasts
Type: cell-based, Humane
Settings: in vitro model; result in words in the running text

For `CCCCCCC(O)CO` (stereo not drawn) [Caprylylglycol], which “Expression von Endo180” value is on record?
Its value is “hemmen oder bestenfalls unbeeinflusst lassen”.

With `CCOC(=O)c1ccc(O)cc1` [Ethylparaben, Ethyl 4-hydroxybenzoat] as the compound, how does the “Expression von Endo180” value read?
Its value is “stimulieren”.

`CCCCCCCC(=O)OCC(O)CO` (stereo not drawn) [Glycerylcaprylat] was tested. Which “Expression von Endo180” value did it give?
The value was “hemmen oder bestenfalls unbeeinflusst lassen”.

With `COC(=O)c1ccc(O)cc1` [Methylparaben] as the compound, how does the “Expression von Endo180” value read?
Its value is “hemmen oder bestenfalls unbeeinflusst lassen”.

With `CCCC(O)CO` (stereo not drawn) [Pentylenglycol] as the compound, how does the “Expression von Endo180” value read?
The value was “hemmen oder bestenfalls unbeeinflusst lassen”.

For `Cc1cc(CC(C)CC(C)(C)C)n(O)c(=O)c1` (stereo not drawn) [Pirocton-Olamin], which “Expression von Endo180” value is on record?
Its value is “hemmen oder bestenfalls unbeeinflusst lassen”.
